The supplement of paper PMC10689618
Some of the results follow. Many values rest on one well or one pass, so single values are uncertain.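 Primary human fetal astrocytes engulfed labelled rat cortical synaptosomes, measured as a red/green ratio corrected for calcein live-cell signal and scaled to the plate median. Toxicity meant calcein falling over 30%; decreased phagocytosis meant below 70% of median above 5 µM.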

Experiments:
Human fetal astrocytes [1] = assay: loss of total cells relative to no-compound high-control median (toxicity); higher = more toxic (fewer cells); conditions: 24 h
Human fetal astrocytes [2] = assay: synaptosome phagocytosis (pHrodo/calcein intensity ratio) relative to plate median of data wells; higher = more phagocytosis; conditions: 24 h

SMILES | loss of total cells (Human fetal astrocytes [1]; 1.39 µM) [%] | loss of total cells (Human fetal astrocytes [1]; 2.78 µM) [%] | loss of total cells (Human fetal astrocytes [1]; 5.56 µM) [%] | loss of total cells (Human fetal astrocytes [1]; 11.11 µM) [%] | loss of total cells (Human fetal astrocytes [1]; 22.22 µM) [%] | synaptosome phagocytosis (Human fetal astrocytes [2]; 1.39 µM) [%] | synaptosome phagocytosis (Human fetal astrocytes [2]; 2.78 µM) [%] | synaptosome phagocytosis (Human fetal astrocytes [2]; 5.56 µM) [%] | synaptosome phagocytosis (Human fetal astrocytes [2]; 11.11 µM) [%] | synaptosome phagocytosis (Human fetal astrocytes [2]; 22.22 µM) [%]
CC(C)CC(N(C)C)C1(c2ccc(Cl)cc2)CCC1 (stereo not given) [Sibutramine] | -32.3 | -5.6 | 0.6 | 22.6 | 2.8 | 79.9 | 119 | 104 | 106 | 117
COc1cc2ccc(=O)oc2c2ccoc12 | -6.2 | 10 | -22.1 | 21.9 | 27.8 | 97.4 | 120 | 99.8 | 101 | 119
COc1cc([C@@H]2c3cc4c(cc3[C@H](O)[C@H]3COC(=O)[C@@H]23)OCO4)cc(OC)c1OC | -0.8 | 6.9 | 3.7 | 9.5 | 11.1 | 106 | 72.7 | 93.8 | 75.1 | 116
N#C[C@H](O[C@@H]1O[C@H](CO[C@@H]2O[C@H](CO)[C@@H](O)[C@H](O)[C@H]2O)[C@@H](O)[C@H](O)[C@H]1O)c1ccccc1 | -15.6 | 6.9 | 4.4 | 19.6 | 5.9 | 137 | 122 | 123 | 123 | 132
